The campaign covered roughly 320,000 compounds. About 22,000 (6.9%) were called active. The inconclusive results got no clear call from the source; some entries with a clear call stand among them for comparison. Calls follow the shape of the dose curve; as a rule, active = well fitted inhibition curve with a large enough effect; inconclusive = small, poorly fitted or top-dose-only effect, or another doubt; inactive = no such curve, though single readings can be large or run the other way. Potencies of inconclusive entries are doubtful fits and often do not repeat.
assay: Primary qHTS for delayed death inhibitors of the malarial parasite plastid, 96 hour incubation; details: P. falciparum luciferase reporter growth; series mostly up to 28.7 µM; activity change, negative = inhibition: at the top concentration
In short: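 Delayed-death screen, second-generation endpoint: infected erythrocytes, 2% hematocrit, 0.05% parasitemia final; 96 hours at 37 C, 5% CO2; luciferase detection reagent; luminescence decrease equals reduced growth.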
% is scaled to controls: 0 for no effect and ±100 for the full control effect; potency is read from the fitted curve at half-maximal effect.

Row | Compound | Potency | activity change, negative = inhibition
1 | Cc1cc(C(=O)Nc2cccc(/C=C/C(=O)O)c2)c(C)o1 | inconclusive: 0.104 µM [inhibitor, full curve, poor fit] | –
2 | Cc1ccc(C(=O)O/N=C(\c2ccccc2)c2cccnc2)cc1 | inconclusive: 11.7 µM [inhibitor, single point] | –
3 | CC(=O)c1cccc(S(=O)(=O)NCCC(=O)O)c1 | – | inactive: 22.5%
4 | COc1ccc(OCCCC(=O)N2CCN(S(=O)(=O)c3cccc(F)c3)CC2)cc1 | inconclusive: 10.4 µM [inhibitor, single point] | –
5 | CC(=O)c1ccc(NC(=S)N(Cc2ccccc2)C(C)C2CC2)cc1 (centres undefined) | inconclusive: 8.28 µM [inhibitor, partial curve, poor fit] | –
6 | C=CCn1c(=O)/c(=C/c2ccc(C)o2)s/c1=C(/C#N)C(=O)c1ccccc1 | – | inactive: 152%
7 | c1coc(CSc2ncnc3c2oc2ccccc23)c1 | – | inactive: 152%
8 | COc1ccccc1CCNC(=O)CCCn1nc(C)c2c(C)n(-c3ccc(C)cc3)nc2c1=O | inconclusive: 18.5 µM [inhibitor, single point] | –
9 | Cc1ccc(-c2nn3c(C)nnc3s2)cc1NC(=O)c1ccc(Br)o1 | inconclusive: 11.7 µM [inhibitor, single point] | –
10 | CCOc1ccc(CNC(=O)CCCc2cn(C)c3ccccc23)cc1OC | inconclusive: 14.7 µM [inhibitor, partial curve, poor fit] | –
11 | COc1ccc(NC2CCCN(C(=O)CCc3cccc(Cl)c3)C2)cc1 (centres undefined) | – | inactive: -12.1%
12 | COC(=O)[C@H](Cc1ccccc1)NC(=O)c1cc(COc2c(F)cccc2F)on1 | active: 11.7 µM | –
13 | O=C(/C=C\c1cccs1)c1c(O)ccc2ccc(=O)oc12 | inconclusive: 11.7 µM [inhibitor, single point] | –
14 | CC(=O)NC1(C(F)(F)F)N=C(c2ccccc2)NC1=O (centres undefined) | – | inactive: 21.6%
15 | COCCNC(=O)CN(C(=O)c1ccc(N2CCCC2)nc1)c1ccc(Cl)cc1 | inconclusive: 2.94 µM [inhibitor, full curve, poor fit] | –
16 | O=C(CCC1CCN(C(=O)c2ccccc2Cl)CC1)NCc1ccc(F)cc1 | inconclusive: 18.5 µM [inhibitor, single point] | –
17 | COc1ccc(CCC(=O)Nc2cnc3ccccc3c2)cc1 | inconclusive: 13.1 µM [inhibitor, single point] | –
18 | O=c1c(=O)n(O)c2ccccc2n1O | inconclusive: 2.94 µM [inhibitor, full curve, poor fit] | –
19 | CC(NCCC1(Cc2ccccc2Cl)CCOC(C)(C)C1)c1cccs1 (centres undefined) | active: 11.7 µM | –
20 | C/C(CC(=O)Nc1ccc(OCc2ccccc2)cc1)=N\NC(=O)C(=O)Nc1ccccc1C | inconclusive: 10.4 µM [inhibitor, single point] | –
21 | CC(C)(C)NC(=O)CSc1nncn1NCc1c(Cl)cccc1Cl | inconclusive: 8.28 µM [inhibitor, partial curve, poor fit] | –
22 | CC(C)(C)NC(=O)C(c1ccncc1)N(Cc1cccs1)C(=O)Cn1nnc(-c2cccs2)n1 (centres undefined) | inconclusive: 11.7 µM [inhibitor, partial curve, poor fit] | –
23 | CCOC(=O)c1c(NC(=O)c2ccnn2C)sc(C)c1C | inconclusive: 6.57 µM [inhibitor, partial curve, poor fit] | –

Row | Compound | Potency | activity change, negative = inhibition
24 | CCOC(=O)c1c[nH]c2ccc3ccccc3c2c1=O | active: 4.65 µM | –
25 | FC(F)(F)C1=CC(c2ccccc2)=NCCN1 | inconclusive: 9.28 µM [inhibitor, partial curve, poor fit] | –
26 | Cc1cc(OCC(=O)NCCCN2CCCC2=O)c2c(C)c(C)c(=O)oc2c1 | – | inactive: -10.3%
27 | CN(C(=O)COC(=O)c1cc(S(=O)(=O)N2CCCCC2)ccc1Cl)c1ccccc1 | inconclusive: 1.65 µM [inhibitor, partial curve] | –
28 | CN1C(=O)[C@H]2[C@@H](/C=C/c3ccccc3)N3C(=O)CN(CCO)C(=O)[C@@]3(C)[C@H]2C1=O | – | inactive: 33.7%
29 | CN1CCN(c2ccc([N+](=O)[O-])cc2NC(=O)c2ccccc2)CC1 | inconclusive: 10.4 µM [inhibitor, single point] | –
30 | Cn1ncc2c(Nc3ccc4ccccc4c3)ncnc21 | inconclusive: 18.5 µM [inhibitor, single point] | –
31 | COC(=O)[C@]1(C)CCC[C@@]2(C)C3CC[C@]4(OC(C)=O)C[C@@]3(CCC21)CC4=NO (some centres undefined) | inconclusive: 5.22 µM [inhibitor, single point] | –
32 | Cc1cc(NC(=O)NC(C)(C(F)(F)F)C(F)(F)F)no1 | – | inactive: 9.13%
33 | CCn1c(SC(C)C(=O)NCC2CCCO2)nc2scc(-c3ccccc3)c2c1=O (centres undefined) | active: 2.94 µM | –
34 | CCCC(=O)N1c2ccccc2[C@@H](N(C(C)=O)c2ccccc2)C[C@H]1C | inconclusive: 18.5 µM [inhibitor, single point] | –
35 | Cc1onc(-c2ccccc2)c1C(=O)NC(=S)NNC(=O)c1ccco1 | inconclusive: 18.5 µM [inhibitor, single point] | –
36 | COc1cc2c(=O)n(Cc3ccccc3)c(=O)n(CC(=O)NCc3ccco3)c2cc1OC | active: 3.7 µM | –
37 | Cc1ccc(N(Cc2cc(=O)[nH]c3ccccc23)C(=O)CCl)cc1 | inconclusive: 5.86 µM [inhibitor, partial curve] | –
38 | CC(C)c1ccc(/C=N/NC(=O)c2nnn(-c3nonc3N)c2CSC2=NCCS2)cc1 | inconclusive: 8.28 µM [inhibitor, partial curve] | –
39 | CN1CCc2cc3c(c4c2[C@H]1[C@H](O)c1ccccc1-4)OCO3 | inconclusive: 1.17 µM [inhibitor, full curve, poor fit] | –
40 | CCc1nnc(SCC(=O)N2CCc3ccccc32)n1CC | inconclusive: 8.28 µM [inhibitor, partial curve, poor fit] | –
41 | COCCCN(C(=S)Nc1cccc(Cl)c1)C(C)c1ccncc1 (centres undefined) | – | inactive: -23.8%
42 | Cc1cccc(-c2nc3ccccc3c3nncn23)c1 | inconclusive: 3.7 µM [inhibitor, single point] | –
43 | COC(=O)CC1=NN(c2ccccc2)C(=O)C1 | active: 5.22 µM | –
44 | CCc1ccc(C(c2c(C)nn(-c3ccccc3)c2N)c2c(C)nn(-c3ccccc3)c2N)cc1 | inconclusive: 1.31 µM [inhibitor, full curve] | –
45 | Oc1ccccc1C(Nc1nccs1)c1ccc2cccnc2c1O (centres undefined) | active: 2.62 µM | –
46 | CCOC(=O)Cc1csc(NC(=O)/C=C/c2ccc(Cl)cc2)n1 | inconclusive: 11.7 µM [inhibitor, partial curve, poor fit] | –

One compound at a time (already shown). Values in the order: Potency | activity change, negative = inhibition
Cc1onc(-c2ccccc2)c1C(=O)NC(=S)NNC(=O)c1ccco1 as listed: inconclusive: 18.5 µM [inhibitor, single point] | –
CC(=O)NC1(C(F)(F)F)N=C(c2ccccc2)NC1=O (centres undefined) as listed: – | inactive: 21.6%

Later entries.

Row | Compound | Potency | activity change, negative = inhibition
47 | CCCCNC(=O)CCN1N=C(c2ccccc2)CCC1=O | inconclusive: 14.7 µM [inhibitor, partial curve, poor fit] | –
48 | CCCC(=O)NC1C2CC3CC(C2)CC1C3 (centres undefined) | inconclusive: 4.15 µM [inhibitor, single point] | –
49 | Cc1cc(NC(=O)CSc2nnc(-c3ccc(Br)o3)n2Cc2ccccc2)no1 | inconclusive: 3.7 µM [inhibitor, single point] | –
50 | CCOc1ccc(NC(=O)CN(C)C(=O)c2ccncc2)cc1OCC | inconclusive: 10.4 µM [inhibitor, single point] | –
51 | CCCc1ccc2oc(C(=O)N3CCN(c4cnccn4)CC3)c(C)c2c1 | – | inactive: 35%
52 | O=C(NC1CCCCC1)c1cc(-c2ccccn2)nc2ccccc12 | inconclusive: 18.5 µM [inhibitor, single point] | –
53 | CNC(=O)N1CCC(C(=O)c2c(C)c(C)c(C)c(C)c2C)CC1 | inconclusive: 11.7 µM [inhibitor, single point] | –
54 | CCOC(=O)N1CCC(N2C(=O)c3ccccc3C2Nc2ccc(S(=O)(=O)N(CC)CC)cc2)CC1 (centres undefined) | inconclusive: 0.465 µM [inhibitor, full curve, poor fit] | –
55 | COc1ccc(C(=O)NNC(=O)C(=O)Nc2cccc3ccccc23)cc1 | inconclusive: 9.28 µM [inhibitor, partial curve] | –
56 | CCOC(=O)N1CCC(NC(=O)c2cc3sccc3n2CC)CC1 | active: 5.22 µM | –
57 | O=C(c1cccc2ccccc12)C1CCCN(C(=O)c2ccc(N3CCOCC3)cc2)C1 (centres undefined) | – | inactive: -0.623%
58 | CCN(C(=O)c1cc2cccc(OC)c2oc1=O)C1CCCCC1 | active: 1.47 µM | –
59 | COc1ccc(-c2cc(-c3ccccc3)nc(N3CCCC3)n2)cc1OC | – | inactive: 0.308%
60 | CCOc1ccc(NC(=S)Nc2cc(C)[nH]n2)cc1 | – | inactive: -5.88% [at 5.75 µM]
61 | Cc1ccc(/C=C(\C#N)c2nn(-c3ccccc3)c(N)c2C#N)cc1 | inconclusive: 0.37 µM [inhibitor, full curve, poor fit] | –
62 | CC(C)c1ccc2c(c1)C(c1ccc(N3CCOCC3)cc1)=NNC(c1cccs1)=N2 | inconclusive: 2.62 µM [inhibitor, partial curve, poor fit] | –
63 | C=CCn1c(SCC(=O)Nc2cccc(S(N)(=O)=O)c2)nnc1C1CCCCC1 | – | inactive: -15.6%
64 | Cn1c(SCc2nc(-c3ccccc3)no2)nnc1-c1ccco1 | – | inactive: 7.63%
65 | CC(=O)n1cc(N(C(=O)CCl)c2ccccc2)c2ccccc21 | inconclusive: 1.47 µM [inhibitor, full curve, poor fit] | –
66 | Cc1ccc(S(=O)(=O)N/N=C/c2ccc3nccnc3c2)cc1 | – | inactive: 10.3%
67 | Cc1cccc2[nH]c3c(N4CCN(C(=O)c5ccco5)CC4)ncnc3c12 | inconclusive: 4.15 µM [inhibitor, partial curve] | –
68 | Cc1ccc2c(c1)C(=O)CCCCC(=O)N2 | inconclusive: 11.7 µM [inhibitor, partial curve, poor fit] | –
69 | Cc1ccc(CNC(=O)CC(C)S(=O)(=O)c2ccc3c(c2)NC(=O)CS3)o1 (centres undefined) | inconclusive: 4.65 µM [inhibitor, partial curve] | –

Reference: PubChem BioAssay AID504834 (National Center for Advancing Translational Sciences (NCATS), 2011)
